This is an account of results in PubChem BioAssay AID330 (DTP/NCI, 2004).

The list shows only some results of the screen, not a fair sample: it gathers tests that were run many times, whatever their T/C, doses with no T/C, and many T/C values between a quarter and a half above the control. Further doses and runs are listed elsewhere. T/C is the treated group as % of the vehicle group. Some entries give survivors of the animals treated and no T/C: the source files T/C as zero there, which appears to mark a toxic dose or a test without result, not a measured value. Some doses without a T/C left all or most animals alive at the check, yet need not have been tolerated: survival well below the control is almost never listed, so the zero probably covers shortened survival too. Counts of survivors are from the toxicity check (mostly the fifth day) where no day follows; animals may have died later. Schedules are NCI's codes, read here as Q, the interval in days (D) or hours (H), X, the number of doses. Some doses were run more than once; the values are given in rising order. Some structures stand for samples that the source files as different forms (salt, stereo form or complex); doses refer to the form tested. Counts like (3×) give the number of equal values in this list. Where survival is the endpoint, this PubChem deposit counts one and a half times the control or more as active, and values a quarter to a half above the control carry no call in these data; other NCI protocols may use other cut-offs. Some T/C values carry the count of animals alive at the toxicity check (mostly the fifth day); where none is given, no animal had died by that day.

The subject of the assay is P388 leukemia ip, CD2F1 mice, survival T/C. Nature of the assay: NCI In Vivo Anticancer Drug Screen. Data for tumor model P388 Leukemia (intraperitoneal) in CD2F1 (CDF1) mice. As to conditions: T/C endpoint: median survival time, higher T/C = longer survival.
[1] abbreviates: dose: 12.5 mg/kg/injection, schedule: Q01DX009 (ip), vehicle: saline with Tween-80.
The mark [2] stands for this setting: dose: 100.0 mg/kg/injection, schedule: Q01DX009 (ip), vehicle: saline with Tween-80.
The mark [3] stands for this setting: dose: 200.0 mg/kg/injection, schedule: Q01DX009 (ip), vehicle: saline with Tween-80.
The mark [4] stands for this setting: dose: 100.0 mg/kg/injection, schedule: Q01DX005 (ip), vehicle: Klucel (hydroxypropylcellulose) (HPC).
[5] abbreviates: dose: 200.0 mg/kg/injection, schedule: Q01DX005 (ip), vehicle: Klucel (hydroxypropylcellulose) (HPC).
The mark [6] stands for this setting: dose: 400.0 mg/kg/injection, schedule: Q01DX001 (ip), vehicle: Klucel (hydroxypropylcellulose) (HPC).
The mark [7] stands for this setting: dose: 7.5 mg/kg/injection, schedule: Q01DX005 (ip), vehicle: Klucel (hydroxypropylcellulose) (HPC).
The mark [8] stands for this setting: dose: 120.0 mg/kg/injection, schedule: Q01DX005 (ip), vehicle: Klucel (hydroxypropylcellulose) (HPC).
[9] abbreviates: dose: 240.0 mg/kg/injection, schedule: Q01DX005 (ip), vehicle: Klucel (hydroxypropylcellulose) (HPC).
Where [10] appears, read: dose: 0.5 mg/kg/injection, schedule: Q01DX009 (ip), vehicle: water.
[11] abbreviates: dose: 240.0 mg/kg/injection, schedule: Q01DX005 (ip), vehicle: saline.

Take `S=C([S][Sn]([c]1ccccc1)([c]1ccccc1)[c]1ccccc1)N1CCOCC1`: the T/C is, setting by setting: (dose: 6.25 mg/kg/injection, schedule: Q01DX009 (ip), vehicle: saline with Tween-80) 126 % of control; under setting [1], 130 and 143 % of control. Also, the survivor count reads like this: (dose: 25.0 mg/kg/injection, schedule: Q01DX009 (ip), vehicle: saline with Tween-80) 3 of 6, 4 of 6, 5 of 6; (dose: 50.0 mg/kg/injection, schedule: Q01DX009 (ip), vehicle: saline with Tween-80) 0 of 6; under setting [2], 0 of 6; under setting [3], 0 of 6.

Consider `CN(C)CCn1c2nc(=O)[nH]c(=O)c-2nc2ccccc21`, for which the survivor count reads like this: under setting [4], 3 of 6; under setting [5], 0 of 6.

`C1CNC(SCC2CC3CC2C2OC32)=N1` (stereo not drawn): the survivor count under setting [5] is recorded as 1 of 6.

In the case of `Ic1ccc2c(c1)N(c1ccccc1)c1cc(N=c3ccc4nc5ccc(I)cc5n(-c5ccccc5)c-4c3)ccc1N2`, where the note is “dose: 400.0 mg/kg/injection, schedule: Q01DX009 (ip), vehicle: Klucel (hydroxypropylcellulose) (HPC)”, the survivor count is given as 6 of 6.

As for `c1ncn(C23CC4CC(CC(C4)C2)C3)n1`, the survivor count by setting is: (dose: 12.5 mg/kg/injection, schedule: Q01DX001 (ip), vehicle: Klucel (hydroxypropylcellulose) (HPC)) 0 of 6; (dose: 25.0 mg/kg/injection, schedule: Q01DX001 (ip), vehicle: Klucel (hydroxypropylcellulose) (HPC)) 0 of 6; (dose: 50.0 mg/kg/injection, schedule: Q01DX001 (ip), vehicle: Klucel (hydroxypropylcellulose) (HPC)) 0 of 6; (dose: 100.0 mg/kg/injection, schedule: Q01DX001 (ip), vehicle: Klucel (hydroxypropylcellulose) (HPC)) 0 of 6 (2×); (dose: 200.0 mg/kg/injection, schedule: Q01DX001 (ip), vehicle: Klucel (hydroxypropylcellulose) (HPC)) 0 of 6; under setting [6], 1 of 6.

Turning to `O=C(O)c1cccc2c1Cc1cc([N+](=O)[O-])ccc1-2`, under setting [5], the survivor count was 3 of 6.

Turning to `CCn1c2nc(=O)n(C)c(=O)c-2[n+]([O-])c2cc(C)ccc21`, the survivor count was 6 of 6 (dose: 100.0 mg/kg/injection, schedule: Q04DX003 (ip), vehicle: saline with Tween-80); 3 of 6 (dose: 200.0 mg/kg/injection, schedule: Q04DX003 (ip), vehicle: saline with Tween-80); 0 of 6 (dose: 400.0 mg/kg/injection, schedule: Q04DX003 (ip), vehicle: saline with Tween-80).

`Cc1cc(C)c2c(=O)n(-c3ccc(Br)cc3)c(=S)n(-c3ccc(Br)cc3)c2n1`: the survivor count was 6 of 6 (dose: 100.0 mg/kg/injection, schedule: Q01DX005 (ip), vehicle: saline with Tween-80) and 6 of 6 (dose: 200.0 mg/kg/injection, schedule: Q01DX005 (ip), vehicle: saline with Tween-80).

Take `O=S(=O)(O)CC[S][Sn]([S]CCS(=O)(=O)O)([c]1ccccc1)[c]1ccccc1`: the T/C (dose: 0.93 mg/kg/injection, schedule: Q01DX005 (ip), vehicle: Klucel (hydroxypropylcellulose) (HPC)) is 132 % of control; the T/C (dose: 1.87 mg/kg/injection, schedule: Q01DX005 (ip), vehicle: Klucel (hydroxypropylcellulose) (HPC)) was 142 % of control; the T/C (dose: 3.75 mg/kg/injection, schedule: Q01DX005 (ip), vehicle: Klucel (hydroxypropylcellulose) (HPC)) was 144 % of control [5 of 6 alive]; the T/C under setting [7] is 137 % of control [5 of 6 alive]. Besides, the survivor count by setting is: under setting [7], 2 of 6; (dose: 15.0 mg/kg/injection, schedule: Q01DX005 (ip), vehicle: Klucel (hydroxypropylcellulose) (HPC)) 0 of 6; (dose: 60.0 mg/kg/injection, schedule: Q01DX005 (ip), vehicle: Klucel (hydroxypropylcellulose) (HPC)) 0 of 6; under setting [8], 0 of 6; under setting [9], 0 of 6.

As for `Clc1ccc(C#Cc2ccc(Cl)cc2)cc1`, the survivor count under setting [1] is reported as 4 of 6.

Regarding `CCCC1SCC(=O)N1c1nncs1` (stereo not drawn), the T/C is 130 % of control under setting [8], 147 % of control under setting [9] and 125 % of control under setting [6].

In the case of `CCC1=C[C@H]2CN(CCc3c([nH]c4ccccc34)[C@@](C(=O)OC)(c3cc4c(cc3OC)N(C)[C@H]3[C@@](O)(C(=O)NC)[C@H](OC(C)=O)[C@]5(CC)C=CCN6CC[C@]43[C@@H]65)C2)C1`, the T/C was 131 % of control (dose: 0.03 mg/kg/injection, schedule: Q01DX009 (ip), vehicle: water); 133 and 142 % of control (dose: 0.06 mg/kg/injection, schedule: Q01DX009 (ip), vehicle: water); 127 % of control (2×) (dose: 0.25 mg/kg/injection, schedule: Q01DX009 (ip), vehicle: water); 144 % of control under setting [10]; 128 % of control (dose: 1.0 mg/kg/injection, schedule: Q01DX001 (ip), vehicle: water). In addition, the survivor count was 1 of 6 and 6 of 6 under setting [10]; 1 of 6, 2 of 6, 5 of 6 (dose: 1.0 mg/kg/injection, schedule: Q01DX009 (ip), vehicle: water); 0 of 6 (2×) (dose: 2.0 mg/kg/injection, schedule: Q01DX009 (ip), vehicle: water); 6 of 6 (dose: 2.0 mg/kg/injection, schedule: Q04DX003 (ip), vehicle: water).

Turning to `CCC1CC2CN(CCc3c([nH]c4ccccc34)C(C(=O)OC)(c3cc4c(cc3OC)N(C)C3C(O)(C(=O)OC)C(OC(C)=O)C5(CC)CCCN6CCC43C65)C2)C1` (stereo not drawn), the T/C (dose: 4.0 mg/kg/injection, schedule: Q01DX001 (ip), vehicle: water) is 130 % of control; the T/C (dose: 8.0 mg/kg/injection, schedule: Q01DX001 (ip), vehicle: water) was 134 and 140 % of control. The survivor count by setting is: (dose: 64.0 mg/kg/injection, schedule: Q01DX001 (ip), vehicle: water) 0 of 6; (dose: 128.0 mg/kg/injection, schedule: Q01DX001 (ip), vehicle: water) 0 of 6.

For the compound `O=c1nc2c3[nH]cnc3ncn2o1`, the survivor count (dose: 200.0 mg/kg/injection, schedule: Q01DX009 (ip), vehicle: Klucel (hydroxypropylcellulose) (HPC)) is recorded as 3 of 6.

Turning to `Clc1cccc(Cl)c1C(Nc1cnccn1)Nc1cnccn1`, the T/C under setting [4] is 143 % of control. Also, under setting [5], the T/C was 132 % of control; the survivor count is 0 of 6 and 1 of 6.

For `O=C(/C=C/c1ccccc1)Oc1cc([N+](=O)[O-])cc([N+](=O)[O-])c1`, where the note is “dose: 400.0 mg/kg/injection, schedule: Q04DX002 (ip), vehicle: saline with Tween-80”, the T/C is 139 % of control.

Regarding `C[n+]1ccc2ccccc2c1`, the survivor count is listed as 2 of 6 (dose: 120.0 mg/kg/injection, schedule: Q01DX005 (ip), vehicle: saline with Tween-80) and 0 of 6 (dose: 240.0 mg/kg/injection, schedule: Q01DX005 (ip), vehicle: saline with Tween-80).

Take `COC1=C(OC)C(=O)C(N(C)C)=C(CO)C1=O`: under setting [11], the T/C is 131 % of control and the survivor count was 1 of 6.

On to `C[n+]1c(-c2cccc(OCCOCCOc3cccc(-c4c5cc(N)ccc5c5ccc(N)cc5[n+]4C)c3)c2)c2cc(N)ccc2c2ccc(N)cc21`, for which the T/C is, setting by setting: (dose: 0.39 mg/kg/injection, schedule: Q01DX009 (ip), vehicle: water) 134 % of control; (dose: 1.56 mg/kg/injection, schedule: Q01DX009 (ip), vehicle: water) 142 % of control; (dose: 3.13 mg/kg/injection, schedule: Q01DX009 (ip), vehicle: water) 133 % of control.

`CCS/C(C#N)=C/c1ccccc1`: the survivor count under setting [3] is listed as 3 of 6.

Turning to `[N-]=[N+]=Nc1ccc2nc(N)nc(N)c2c1`, under setting [6], the survivor count is recorded as 0 of 6.

As to `Clc1ccc(C(CCc2ccc(Br)cc2)Cn2ccnc2)c(Cl)c1` (stereo not drawn), the survivor count under setting [2] is on record as 4 of 6.
